In the supplement of paper PMC8728848:
Some of the results follow.

Legend:
Assay in all cases: glycan array binding signal (z-score within array); higher = stronger binding
Conditions in all cases: glycan notation: IUPAC condensed, linker removed
[1] = biological target: Neu5Ac(a2-3)[GalNAc(b1-4)]Gal(b1-4)Glc
Summary of the method: (§1)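 The binding signal is a Z-score computed within each array and averaged over linkers. Arrays of the same protein sequence at different concentrations or buffers were also averaged together. Data originate from 3228 arrays in the Consortium for Functional Glycomics database, kept only where the protein sequence was available.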

[2] = biological target: Neu5Ac(a2-3)[GalNAc(b1-4)]Gal(b1-4)GlcNAc
Summary of the method: as §1

[3] = biological target: Neu5Ac(a2-3)[GalNAc(b1-4)]Gal(b1-4)GlcNAc(b1-3)GalNAc
Summary of the method: as §1

[4] = biological target: Neu5Ac(a2-3)[Neu5Ac(a2-6)]GalNAc
Summary of the method: as §1

[5] = biological target: Neu5Ac(a2-6)Gal
Summary of the method: as §1

[6] = biological target: Neu5Ac(a2-6)Gal(b1-3)GlcNAc(b1-3)[Gal(b1-4)GlcNAc(b1-6)]Gal(b1-4)Glc
Summary of the method: as §1

[7] = biological target: Neu5Ac(a2-6)Gal(b1-4)Glc
Summary of the method: as §1

[8] = biological target: Neu5Ac(a2-6)Gal(b1-4)GlcNAc
Summary of the method: as §1

[9] = biological target: Neu5Ac(a2-6)Gal(b1-4)GlcNAc(b1-2)Man(a1-3)Man(b1-4)GlcNAc(b1-4)GlcNAc
Summary of the method: as §1

[10] = biological target: Neu5Ac(a2-6)Gal(b1-4)GlcNAc(b1-2)Man(a1-3)[Gal(b1-4)GlcNAc(b1-2)Man(a1-6)]Man(b1-4)GlcNAc(b1-4)GlcNAc
Summary of the method: as §1

[11] = biological target: Neu5Ac(a2-6)Gal(b1-4)GlcNAc(b1-2)Man(a1-3)[GlcNAc(b1-2)Man(a1-6)]Man(b1-4)GlcNAc(b1-4)GlcNAc
Summary of the method: as §1

[12] = biological target: Neu5Ac(a2-6)Gal(b1-4)GlcNAc(b1-2)Man(a1-3)[GlcNAc(b1-2)Man(b1-4)GlcNAc(b1-2)Man(a1-6)]Man(b1-4)GlcNAc(b1-4)GlcNAc
Summary of the method: as §1

[13] = biological target: Neu5Ac(a2-6)Gal(b1-4)GlcNAc(b1-2)Man(a1-3)[Man(a1-6)]Man(b1-4)GlcNAc(b1-4)GlcNAc
Summary of the method: as §1

[14] = biological target: Neu5Ac(a2-6)Gal(b1-4)GlcNAc(b1-2)Man(a1-3)[Neu5Ac(a2-6)Gal(b1-4)GlcNAc(b1-2)Man(a1-6)]Man(b1-4)GlcNAc(b1-4)GlcNAc
Summary of the method: as §1

[15] = biological target: Neu5Ac(a2-6)Gal(b1-4)GlcNAc(b1-2)Man(a1-6)Man(b1-4)GlcNAc(b1-4)GlcNAc
Summary of the method: as §1

[16] = biological target: Neu5Ac(a2-6)Gal(b1-4)GlcNAc(b1-2)Man(a1-6)[Gal(b1-4)GlcNAc(b1-2)Man(a1-3)]Man(b1-4)GlcNAc(b1-4)GlcNAc
Summary of the method: as §1

[17] = biological target: Neu5Ac(a2-6)Gal(b1-4)GlcNAc(b1-2)Man(a1-6)[GlcNAc(b1-2)Man(a1-3)]Man(b1-4)GlcNAc(b1-4)GlcNAc
Summary of the method: as §1

[18] = biological target: Neu5Ac(a2-6)Gal(b1-4)GlcNAc(b1-2)Man(a1-6)[Man(a1-3)]Man(b1-4)GlcNAc(b1-4)GlcNAc
Summary of the method: as §1

[19] = biological target: Neu5Ac(a2-6)Gal(b1-4)GlcNAc(b1-3)Gal(b1-3)GlcNAc
Summary of the method: as §1

[20] = biological target: Neu5Ac(a2-6)Gal(b1-4)GlcNAc(b1-3)Gal(b1-4)GlcNAc
Summary of the method: as §1

[21] = biological target: Neu5Ac(a2-6)Gal(b1-4)GlcNAc(b1-3)Gal(b1-4)GlcNAc(b1-3)Gal(b1-4)GlcNAc
Summary of the method: as §1

[22] = biological target: Neu5Ac(a2-6)Gal(b1-4)GlcNAc(b1-3)Gal(b1-4)[Fuc(a1-3)]GlcNAc(b1-3)Gal(b1-4)[Fuc(a1-3)]GlcNAc
Summary of the method: as §1

[23] = biological target: Neu5Ac(a2-6)Gal(b1-4)GlcNAc(b1-3)GalNAc
Summary of the method: as §1

[24] = biological target: Neu5Ac(a2-6)Gal(b1-4)GlcNAc6S
Summary of the method: as §1

[25] = biological target: Neu5Ac(a2-6)GalNAc
Summary of the method: as §1

[26] = biological target: Neu5Ac(a2-6)GalNAc(b1-4)GlcNAc
Summary of the method: as §1

[27] = biological target: Neu5Ac(a2-6)GlcNAc(b1-4)GlcNAc
Summary of the method: as §1

[28] = biological target: Neu5Ac(a2-6)GlcNAc(b1-4)GlcNAc(b1-4)GlcNAc
Summary of the method: as §1

[29] = biological target: Neu5Ac(a2-8)Neu5Ac
Summary of the method: as §1

[30] = biological target: Neu5Ac(a2-8)Neu5Ac(a2-3)Gal(b1-3)GalNAc(b1-4)[Neu5Ac(a2-8)Neu5Ac(a2-3)]Gal(b1-4)Glc
Summary of the method: as §1

[31] = biological target: Neu5Ac(a2-8)Neu5Ac(a2-3)Gal(b1-4)Glc
Summary of the method: as §1

[32] = biological target: Neu5Ac(a2-8)Neu5Ac(a2-3)[Gal(b1-3)GalNAc(b1-4)]Gal(b1-4)Glc
Summary of the method: as §1

[33] = biological target: Neu5Ac(a2-8)Neu5Ac(a2-3)[GalNAc(b1-4)]Gal(b1-4)Glc
Summary of the method: as §1

[34] = biological target: Neu5Ac(a2-8)Neu5Ac(a2-8)Neu5Ac
Summary of the method: as §1

[35] = biological target: Neu5Ac(a2-8)Neu5Ac(a2-8)Neu5Ac(a2-3)Gal(b1-4)Glc
Summary of the method: as §1

[36] = biological target: Neu5Ac(a2-8)Neu5Ac(a2-8)Neu5Ac(a2-3)[GalNAc(b1-4)]Gal(b1-4)Glc
Summary of the method: as §1

[37] = biological target: Neu5Ac(a2-8)Neu5Ac(a2-8)Neu5Ac(a2-8)Neu5Ac(a2-3)[GalNAc(b1-4)]Gal(b1-4)Glc
Summary of the method: as §1

[38] = biological target: Neu5Ac(b2-6)Gal(b1-4)GlcNAc
Summary of the method: as §1

[39] = biological target: Neu5Ac(b2-6)GalNAc
Summary of the method: as §1

[40] = biological target: Neu5Ac9Ac(a2-3)Gal(b1-3)GlcNAc
Summary of the method: as §1

[41] = biological target: Neu5Ac9Ac(a2-3)Gal(b1-4)GlcNAc
Summary of the method: as §1

[42] = biological target: Neu5Ac9Ac(a2-6)Gal(b1-4)GlcNAc
Summary of the method: as §1

[43] = biological target: Neu5Gc(a2-3)Gal(b1-3)GlcNAc
Summary of the method: as §1

[44] = biological target: Neu5Gc(a2-3)Gal(b1-3)[Fuc(a1-4)]GlcNAc
Summary of the method: as §1

[45] = biological target: Neu5Gc(a2-3)Gal(b1-4)Glc
Summary of the method: as §1

[46] = biological target: Neu5Gc(a2-3)Gal(b1-4)GlcNAc
Summary of the method: as §1

[47] = biological target: Neu5Gc(a2-3)Gal(b1-4)[Fuc(a1-3)]GlcNAc
Summary of the method: as §1

[48] = biological target: Neu5Gc(a2-6)Gal(b1-4)GlcNAc
Summary of the method: as §1

[49] = biological target: Neu5Gc(a2-6)GalNAc
Summary of the method: as §1

[50] = biological target: Neu5Gc(b2-6)Gal(b1-4)GlcNAc
Summary of the method: as §1

B1: Eosinophil-derived neurotoxin (EDN) (Homo sapiens), P10153 (protein)
chain: MVPKLFTSQICLLLLLGLLAVEGSLHVKPPQFTWAQWFETQHINMTSQQCTNAMQVINNYQRRCKNQNTFLLTTFANVVNVCGNPNMTCPSNKTRKNCHHSGSQVPLIHCNLTTPSPQNISNCRYAQTPANMFYIVACDNRDQRRDPPQYPVVPVHLDRII
In the case of B1, the “glycan array binding signal (z-score)” value [1] is reported as 0.28, the “glycan array binding signal (z-score)” value [2] is reported as 0.011 and the “glycan array binding signal (z-score)” value [3] is reported as -1.23. The “glycan array binding signal (z-score)” value [4] was 0.025, the “glycan array binding signal (z-score)” value [5] was 0.598 and the “glycan array binding signal (z-score)” value [6] was 0.328. The “glycan array binding signal (z-score)” value [7] was -0.474, the “glycan array binding signal (z-score)” value [8] was 0.105 and the “glycan array binding signal (z-score)” value [9] was -0.179. For the same binder, the “glycan array binding signal (z-score)” value [10] was 1.86, the “glycan array binding signal (z-score)” value [11] was -0.101 and the “glycan array binding signal (z-score)” value [12] was -0.093. The “glycan array binding signal (z-score)” value [13] was 0.194, the “glycan array binding signal (z-score)” value [14] was -0.253 and the “glycan array binding signal (z-score)” value [15] was 0.578. For the same binder, the “glycan array binding signal (z-score)” value [16] was 0.174, the “glycan array binding signal (z-score)” value [17] was 0.737 and the “glycan array binding signal (z-score)” value [18] was -0.079. The “glycan array binding signal (z-score)” value [19] was -0.676, the “glycan array binding signal (z-score)” value [20] was 0.023 and the “glycan array binding signal (z-score)” value [21] was -0.452. The “glycan array binding signal (z-score)” value [22] was 0.256, the “glycan array binding signal (z-score)” value [23] was 0.04 and the “glycan array binding signal (z-score)” value [24] was -0.126. For the same binder, the “glycan array binding signal (z-score)” value [25] was -0.29, the “glycan array binding signal (z-score)” value [26] was 0.382 and the “glycan array binding signal (z-score)” value [27] was -0.497. The “glycan array binding signal (z-score)” value [28] was 0.208, the “glycan array binding signal (z-score)” value [29] was 0.394 and the “glycan array binding signal (z-score)” value [30] was -0.783. For the same binder, the “glycan array binding signal (z-score)” value [31] was -0.61, the “glycan array binding signal (z-score)” value [32] was -0.144 and the “glycan array binding signal (z-score)” value [33] was 1.66. The “glycan array binding signal (z-score)” value [34] was -0.335, the “glycan array binding signal (z-score)” value [35] was -0.176 and the “glycan array binding signal (z-score)” value [36] was -0.121. The “glycan array binding signal (z-score)” value [37] was -1.11, the “glycan array binding signal (z-score)” value [38] was 0.387 and the “glycan array binding signal (z-score)” value [39] was 0.895. For the same binder, the “glycan array binding signal (z-score)” value [40] was -0.207, the “glycan array binding signal (z-score)” value [41] was -0.489 and the “glycan array binding signal (z-score)” value [42] was -0.683. The “glycan array binding signal (z-score)” value [43] was 0.306, the “glycan array binding signal (z-score)” value [44] was -0.217 and the “glycan array binding signal (z-score)” value [45] was -0.261. For the same binder, the “glycan array binding signal (z-score)” value [46] was 0.858, the “glycan array binding signal (z-score)” value [47] was -0.119 and the “glycan array binding signal (z-score)” value [48] was 0.944. The “glycan array binding signal (z-score)” value [49] was 0.524 and the “glycan array binding signal (z-score)” value [50] was 0.153.
